In publication doi:10.1101/825018:
Results are given in words; binding and its absence hold for the method and conditions named. Binding seen in cells or lysates may run through a third protein. Tags and fused reporters may be left off the sequences shown.

T1: ZP1^WT (wild-type zona pellucida glycoprotein 1), P60852
T1 chain: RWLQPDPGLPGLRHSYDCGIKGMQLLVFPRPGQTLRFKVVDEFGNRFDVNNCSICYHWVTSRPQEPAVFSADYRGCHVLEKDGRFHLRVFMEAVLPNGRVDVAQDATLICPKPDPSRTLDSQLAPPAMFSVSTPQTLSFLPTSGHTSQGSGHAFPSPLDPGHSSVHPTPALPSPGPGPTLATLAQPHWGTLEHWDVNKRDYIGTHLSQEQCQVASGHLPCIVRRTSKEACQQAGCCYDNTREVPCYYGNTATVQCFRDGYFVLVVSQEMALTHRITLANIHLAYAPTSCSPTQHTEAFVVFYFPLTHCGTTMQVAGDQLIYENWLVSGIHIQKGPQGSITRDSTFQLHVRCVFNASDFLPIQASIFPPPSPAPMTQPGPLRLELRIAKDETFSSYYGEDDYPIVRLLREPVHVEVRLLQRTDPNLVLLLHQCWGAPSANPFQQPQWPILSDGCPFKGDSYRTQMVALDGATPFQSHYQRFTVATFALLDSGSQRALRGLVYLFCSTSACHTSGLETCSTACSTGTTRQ

B1: ZP3 (zona pellucida glycoprotein 3), P21754 23-350 (protein)
chain: QPLWLLQGGASHPETSVQPVLVECQEATLMVMVSKDLFGTGKLIRAADLTLGPEACEPLVSMDTEDVVRFEVGLHECGNSMQVTDDALVYSTFLLHDPRPVGNLSIVRTNRAEIPIECRYPRQGNVSSQAILPTWLPFRTTVFSEEKLTFSLRLMEENWNAEKRSPTFHLGDAAHLQAEIHTGSHVPLRLFVDHCVATPTPDQNASPYHTIVDFHGCLVDGLTDASSAFKVPRPGPDTLQFTVDVFHFANDSRNMIYITCHLKVTLAEQDPDELNKACSFSKPSNSWFPVEGSADICQCCNKGDCGTPSHSRRQPHVMSQWSRSASRN
B2: ZP4 (zona pellucida glycoprotein 4) (protein, UniProt Q12836 19-462)
chain: GQHKPEAPDYSSVLHCGPWSFQFAVNLNQEATSPPVLIAWDNQGLLHELQNDSDCGTWIRKGPGSSVVLEATYSSCYVTEWDSHYIMPVGVEGAGAAEHKVVTERKLLKCPMDLLARDAPDTDWCDSIPARDRLPCAPSPISRGDCEGLGCCYSSEEVNSCYYGNTVTLHCTREGHFSIAVSRNVTSPPLLLDSVRLALRNDSACNPVMATQAFVLFQFPFTSCGTTRQITGDRAVYENELVATRDVKNGSRGSVTRDSIFRLHVSCSYSVSSNSLPINVQVFTLPPPFPETQPGPLTLELQIAKDKNYGSYYGVGDYPVVKLLRDPIYVEVSILHRTDPYLGLLLQQCWATPSTDPLSQPQWPILVKGCPYIGDNYQTQLIPVQKALDLPFPSHHQRFSIFTFSFVNPTVEKQALRGPVHLHCSVSVCQPAETPSCVVTCPDL

What was measured:
[1] = target: T1, ZP1^WT (wild-type zona pellucida …); assay: co-IP; conditions: remark: other sources report otherwise
[2] = target: ZP1^WT (wild-type zona pellucida glycoprotein 1) (UniProt P60852); assay: co-IP

| Binder | binding [1] | binding [2] |
| --- | --- | --- |
| B1 | no binding | – |
| B2 | – | no binding |
